Measured values reported in the supplement of paper PMC10849652.
Some of the results follow.

Amino acid sequences for entries named in this document (tags omitted). A change or cut given only in a name is not applied to a line headed by its entry.
UniProt Q92805: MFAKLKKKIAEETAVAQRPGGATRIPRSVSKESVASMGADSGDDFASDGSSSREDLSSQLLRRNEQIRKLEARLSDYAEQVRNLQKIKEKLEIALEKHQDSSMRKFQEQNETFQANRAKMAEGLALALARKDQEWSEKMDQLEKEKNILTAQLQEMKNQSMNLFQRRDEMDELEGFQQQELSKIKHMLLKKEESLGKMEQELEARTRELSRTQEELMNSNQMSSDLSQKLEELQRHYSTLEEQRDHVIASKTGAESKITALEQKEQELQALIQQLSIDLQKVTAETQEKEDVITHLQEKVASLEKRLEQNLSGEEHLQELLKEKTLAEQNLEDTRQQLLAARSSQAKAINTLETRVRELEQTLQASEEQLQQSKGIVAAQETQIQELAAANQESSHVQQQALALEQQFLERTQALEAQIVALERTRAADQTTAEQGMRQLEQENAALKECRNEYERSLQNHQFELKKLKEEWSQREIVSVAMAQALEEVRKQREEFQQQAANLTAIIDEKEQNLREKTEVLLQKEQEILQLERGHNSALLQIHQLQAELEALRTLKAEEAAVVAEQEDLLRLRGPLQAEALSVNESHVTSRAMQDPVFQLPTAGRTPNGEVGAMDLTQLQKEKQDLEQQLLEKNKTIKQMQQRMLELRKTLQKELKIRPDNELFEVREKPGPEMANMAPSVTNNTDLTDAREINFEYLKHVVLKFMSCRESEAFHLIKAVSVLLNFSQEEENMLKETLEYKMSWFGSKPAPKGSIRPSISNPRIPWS
UniProt Q92917: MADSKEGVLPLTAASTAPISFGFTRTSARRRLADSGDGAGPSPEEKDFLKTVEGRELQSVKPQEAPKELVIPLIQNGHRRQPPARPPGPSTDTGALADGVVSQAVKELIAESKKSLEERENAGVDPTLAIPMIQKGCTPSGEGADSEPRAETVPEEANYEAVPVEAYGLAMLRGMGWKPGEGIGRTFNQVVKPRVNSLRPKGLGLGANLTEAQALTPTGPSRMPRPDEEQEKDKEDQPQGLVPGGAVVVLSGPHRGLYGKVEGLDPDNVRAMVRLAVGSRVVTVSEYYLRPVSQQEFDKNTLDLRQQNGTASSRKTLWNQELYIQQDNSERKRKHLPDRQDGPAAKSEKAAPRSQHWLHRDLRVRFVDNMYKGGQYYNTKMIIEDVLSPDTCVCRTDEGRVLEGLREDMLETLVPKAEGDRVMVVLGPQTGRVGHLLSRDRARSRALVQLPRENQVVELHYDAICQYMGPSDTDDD
UniProt Q14691: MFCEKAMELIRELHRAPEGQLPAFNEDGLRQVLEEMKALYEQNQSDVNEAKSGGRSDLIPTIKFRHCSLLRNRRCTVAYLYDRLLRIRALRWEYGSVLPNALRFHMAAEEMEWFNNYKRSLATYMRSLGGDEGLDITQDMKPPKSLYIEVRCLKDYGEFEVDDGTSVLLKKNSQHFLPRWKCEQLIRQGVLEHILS
UniProt Q9UKD1: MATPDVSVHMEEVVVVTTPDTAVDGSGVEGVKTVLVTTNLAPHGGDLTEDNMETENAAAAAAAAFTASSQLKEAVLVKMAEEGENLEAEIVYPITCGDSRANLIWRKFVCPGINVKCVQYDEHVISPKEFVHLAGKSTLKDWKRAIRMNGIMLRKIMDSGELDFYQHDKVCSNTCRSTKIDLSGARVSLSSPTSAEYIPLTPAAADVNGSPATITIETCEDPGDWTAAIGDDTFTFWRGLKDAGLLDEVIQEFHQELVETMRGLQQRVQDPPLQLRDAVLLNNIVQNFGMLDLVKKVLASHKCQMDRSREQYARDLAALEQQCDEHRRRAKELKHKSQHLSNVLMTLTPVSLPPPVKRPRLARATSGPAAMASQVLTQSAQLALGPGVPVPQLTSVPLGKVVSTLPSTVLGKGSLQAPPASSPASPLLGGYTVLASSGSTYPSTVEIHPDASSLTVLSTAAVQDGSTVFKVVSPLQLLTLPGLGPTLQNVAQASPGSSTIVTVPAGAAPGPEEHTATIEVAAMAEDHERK
UniProt O95749: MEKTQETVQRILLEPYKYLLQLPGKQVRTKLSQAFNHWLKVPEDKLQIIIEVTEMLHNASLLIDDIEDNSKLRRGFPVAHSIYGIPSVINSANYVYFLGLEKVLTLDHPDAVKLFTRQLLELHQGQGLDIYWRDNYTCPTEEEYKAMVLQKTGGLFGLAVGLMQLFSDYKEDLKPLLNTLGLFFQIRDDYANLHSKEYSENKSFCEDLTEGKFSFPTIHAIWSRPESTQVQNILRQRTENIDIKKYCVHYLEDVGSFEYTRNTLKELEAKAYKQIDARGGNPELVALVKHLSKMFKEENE
UniProt Q9HC38: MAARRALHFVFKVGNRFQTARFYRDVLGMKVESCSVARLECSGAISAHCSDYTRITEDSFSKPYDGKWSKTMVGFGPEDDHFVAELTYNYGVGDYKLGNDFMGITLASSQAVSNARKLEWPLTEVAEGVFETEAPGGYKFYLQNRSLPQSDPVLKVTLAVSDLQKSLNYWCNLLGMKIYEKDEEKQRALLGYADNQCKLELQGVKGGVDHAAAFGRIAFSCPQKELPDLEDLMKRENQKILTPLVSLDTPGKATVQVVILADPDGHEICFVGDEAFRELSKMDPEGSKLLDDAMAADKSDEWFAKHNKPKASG
UniProt Q9H3K2: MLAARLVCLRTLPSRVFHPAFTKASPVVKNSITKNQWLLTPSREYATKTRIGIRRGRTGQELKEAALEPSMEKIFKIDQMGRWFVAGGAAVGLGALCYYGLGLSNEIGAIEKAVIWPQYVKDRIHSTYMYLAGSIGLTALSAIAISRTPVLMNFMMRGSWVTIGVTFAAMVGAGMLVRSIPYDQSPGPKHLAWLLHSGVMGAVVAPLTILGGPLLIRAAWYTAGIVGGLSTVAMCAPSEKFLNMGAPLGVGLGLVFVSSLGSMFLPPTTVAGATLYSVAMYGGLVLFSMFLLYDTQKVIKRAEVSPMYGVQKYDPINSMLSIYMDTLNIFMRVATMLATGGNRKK
UniProt O76003: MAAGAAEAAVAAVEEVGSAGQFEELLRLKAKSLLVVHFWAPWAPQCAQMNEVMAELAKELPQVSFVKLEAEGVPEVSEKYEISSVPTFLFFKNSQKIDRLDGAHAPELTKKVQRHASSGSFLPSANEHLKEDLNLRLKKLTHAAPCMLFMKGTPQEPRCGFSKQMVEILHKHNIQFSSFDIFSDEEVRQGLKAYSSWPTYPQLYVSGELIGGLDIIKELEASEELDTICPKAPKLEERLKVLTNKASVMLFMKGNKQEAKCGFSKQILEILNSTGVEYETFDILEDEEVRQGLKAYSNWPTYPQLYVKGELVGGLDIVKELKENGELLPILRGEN

Legend:
Assay in all cases: log2 fold change, soluble protein after heating vs DMSO (PISA); higher = thermal stabilisation; K562 lysate, 10 uM; active = over 0.2 and 3.5 SD of the protein, either way, in both replicates (recomputed)
lapatinib = compound: CS(=O)(=O)CCNCc1ccc(-c2ccc3ncnc(Nc4ccc(OCc5cccc(F)c5)c(Cl)c4)c3c2)o1 [lapatinib]
In short: (§1)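 Thermal stability, expressed as log-two fold change relative to solvent controls, is given from duplicates. Crude K562 extract in PBS pH 7.4 with 1 mM MgCl2, at 1 mg/mL protein, was treated with 10 μM compound for 30 min and heated in aliquots for 3 min across 48°C-58°C. After pooling, adjustment to 0.5% NP-40 at 4°C and centrifugation at 21,000xg for 90 min, supernatant protein was measured by TMTpro 16plex LC-MS/MS with channel sums equalised.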

pictilisib = compound: CS(=O)(=O)N1CCN(Cc2cc3nc(-c4cccc5[nH]ncc45)nc(N4CCOCC4)c3s2)CC1 [pictilisib]
In short: as §1

crizotinib = compound: C[C@@H](Oc1cc(-c2cnn(C3CCNCC3)c2)cnc1N)c1c(Cl)ccc(F)c1Cl [crizotinib]
In short: as §1

[1] = compound: C[C@H](C1=CC=C(C=C1)C(=O)NC2=C3C=CNC3=NC=C2)N
In short: as §1

duvelisib = compound: C[C@H](Nc1ncnc2nc[nH]c12)c1cc2cccc(Cl)c2c(=O)n1-c1ccccc1 [duvelisib]
In short: as §1

gandotinib = compound: Cc1cc(Nc2cc(CN3CCOCC3)c3nc(C)c(Cc4ccc(Cl)cc4F)n3n2)n[nH]1 [gandotinib]
In short: as §1

tozasertib = compound: Cc1cc(Nc2cc(N3CCN(C)CC3)nc(Sc3ccc(NC(=O)C4CC4)cc3)n2)n[nH]1 [tozasertib]
In short: as §1

doramapimod = compound: Cc1ccc(-n2nc(C(C)(C)C)cc2NC(=O)Nc2ccc(OCCN3CCOCC3)c3ccccc23)cc1 [doramapimod]
In short: as §1

bafetinib = compound: Cc1ccc(NC(=O)c2ccc(CN3CC[C@H](N(C)C)C3)c(C(F)(F)F)c2)cc1Nc1nccc(-c2cncnc2)n1 [bafetinib]
In short: as §1

[2] = compound: Cc1cccc(CC(=O)N2CCc3c2ccc(-c2cn(C)c4ncnc(N)c24)c3F)n1
In short: as §1

nilotinib = compound: Cc1cn(-c2cc(NC(=O)c3ccc(C)c(Nc4nccc(-c5cccnc5)n4)c3)cc(C(F)(F)F)c2)cn1 [nilotinib]
In short: as §1

[3] = compound: Cc1nc(Nc2n[nH]c3c2CN(C(=O)N[C@H](CN(C)C)c2ccccc2)C3(C)C)c2sccc2n1
In short: as §1

dasatinib = compound: Cc1nc(Nc2ncc(C(=O)Nc3c(C)cccc3Cl)s2)cc(N2CCN(CCO)CC2)n1 [dasatinib]
In short: as §1

[4] = compound: Cc1ncc(-c2ccnc(Nc3ccc(S(C)(=O)=O)cc3)n2)n1C(C)C
In short: as §1

[5] = compound: Cn1cc(-c2ccc3c(c2)CCN3C(=O)Cc2cccc(C(F)(F)F)c2)c2c(N)ncnc21
In short: as §1

quisinostat = compound: Cn1cc(CNCC2CCN(c3ncc(C(=O)NO)cn3)CC2)c2ccccc21 [quisinostat]
In short: as §1

tipifarnib = compound: Cn1cncc1[C@@](N)(c1ccc(Cl)cc1)c1ccc2c(c1)c(-c1cccc(Cl)c1)cc(=O)n2C [tipifarnib]
In short: as §1

[6] = compound: NC(=O)Nc1cc(-c2cccc(F)c2)sc1C(=O)N[C@H]1CCCNC1
In short: as §1

[7] = compound: NC(=O)c1cnc(N[C@@H]2CCCC[C@@H]2N)nc1Nc1cccc(-n2nccn2)c1
In short: as §1

[8] = compound: NC1(c2ccc(-c3nc4ccn5c(=O)[nH]nc5c4cc3-c3ccccc3)cc2)CCC1
In short: as §1

Target	log2 fold change (lapatinib)	log2 fold change (pictilisib)	log2 fold change (crizotinib)	log2 fold change [1]	log2 fold change (duvelisib)	log2 fold change (gandotinib)	log2 fold change (tozasertib)	log2 fold change (doramapimod)	log2 fold change (bafetinib)	log2 fold change [2]	log2 fold change (nilotinib)	log2 fold change [3]	log2 fold change (dasatinib)	log2 fold change [4]	log2 fold change [5]	log2 fold change (quisinostat)	log2 fold change (tipifarnib)	log2 fold change [6]	log2 fold change [7]	log2 fold change [8]
GOLGA1 (UniProt Q92805)	active: -0.406	inactive: 0.007	inactive: 0.012	inactive: 0.056	inactive: -0.101	inactive: 0.024	inactive: -0.087	inactive: 0.001	inactive: -0.066	inactive: -0.025	inactive: 0.033	inactive: -0.009	inactive: -0.026	inactive: -0.015	inactive: 0.022	inactive: -0.073	inactive: -0.099	inactive: 0.042	inactive: 0.106	inactive: 0.004
GPKOW (UniProt Q92917)	inactive: 0	inactive: 0.013	inactive: 0.028	inactive: 0.102	inactive: -0.029	inactive: -0.026	inactive: 0	inactive: 0.002	inactive: -0.03	inactive: -0.07	inactive: -0.03	inactive: 0.008	inactive: -0.003	inactive: -0.034	inactive: 0.015	inactive: -0.001	inactive: -0.002	inactive: -0.002	inactive: 0	inactive: 0.022
GINS1 (UniProt Q14691)	inactive: -0.018	inactive: -0.059	inactive: -0.045	inactive: -0.025	inactive: 0.025	inactive: -0.04	inactive: 0.019	inactive: 0.01	inactive: -0.055	inactive: 0	inactive: 0.056	inactive: -0.022	inactive: 0.037	inactive: 0	inactive: 0.01	inactive: -0.044	inactive: 0.002	inactive: -0.034	inactive: 0.016	inactive: 0.033
GMEB2 (UniProt Q9UKD1)	inactive: 0.089	inactive: 0.021	inactive: -0.01	inactive: 0.006	inactive: 0.116	inactive: -0.026	inactive: 0.004	inactive: -0.008	inactive: 0.014	inactive: -0.015	inactive: 0.023	inactive: -0.076	inactive: -0.104	inactive: -0.074	inactive: 0.006	inactive: 0.029	inactive: 0.006	inactive: 0.026	inactive: -0.06	inactive: -0.096
GGPS1 (UniProt O95749)	inactive: 0.019	inactive: 0.004	inactive: 0.035	inactive: -0.003	inactive: -0.028	inactive: 0.027	inactive: 0.038	inactive: 0.011	inactive: 0.036	inactive: -0.024	inactive: -0.014	inactive: -0.005	inactive: -0.028	inactive: -0.017	inactive: 0.006	inactive: 0.05	inactive: 0.017	inactive: -0.007	inactive: -0.024	inactive: 0.002
GLOD4 isoform 2 (UniProt Q9HC38)	inactive: -0.005	inactive: -0.005	inactive: 0.016	inactive: 0.021	inactive: 0	inactive: -0.035	inactive: 0.002	inactive: -0.012	inactive: 0.035	inactive: -0.016	inactive: -0.033	inactive: 0	inactive: 0.004	inactive: 0.006	inactive: 0	inactive: 0.029	inactive: 0.036	inactive: -0.019	inactive: 0.015	inactive: 0.017
GHITM (UniProt Q9H3K2)	inactive: -0.021	inactive: -0.051	inactive: -0.001	inactive: -0.012	inactive: 0.009	inactive: 0.014	inactive: -0.024	inactive: -0.009	inactive: -0.001	inactive: 0.013	inactive: 0.017	inactive: -0.004	inactive: 0.008	inactive: 0.005	inactive: -0.011	inactive: -0.01	inactive: -0.007	inactive: 0.015	inactive: -0.017	inactive: 0.002
GLRX3 (UniProt O76003)	inactive: -0.011	inactive: -0.029	inactive: 0.013	inactive: 0.009	inactive: 0.009	inactive: 0.019	inactive: -0.057	inactive: -0.039	inactive: -0.006	inactive: -0.022	inactive: 0.022	inactive: -0.028	inactive: 0.011	inactive: 0.016	inactive: -0.013	inactive: 0.004	inactive: 0.028	inactive: 0.005	inactive: -0.038	inactive: 0.007
